Test results published in publication PMC11257408.
Results are given in words; binding and its absence hold for the method and conditions named. Binding seen in cells or lysates may run through a third protein. Some results given as binding are weak or reduced against the parent protein; the word gives no strength.

The chains behind the UniProt entries cited, without tags or fusion partners. Where a name states a change or a piece, a line headed by the entry shows the natural chain unless it says otherwise.
UniProt O95602: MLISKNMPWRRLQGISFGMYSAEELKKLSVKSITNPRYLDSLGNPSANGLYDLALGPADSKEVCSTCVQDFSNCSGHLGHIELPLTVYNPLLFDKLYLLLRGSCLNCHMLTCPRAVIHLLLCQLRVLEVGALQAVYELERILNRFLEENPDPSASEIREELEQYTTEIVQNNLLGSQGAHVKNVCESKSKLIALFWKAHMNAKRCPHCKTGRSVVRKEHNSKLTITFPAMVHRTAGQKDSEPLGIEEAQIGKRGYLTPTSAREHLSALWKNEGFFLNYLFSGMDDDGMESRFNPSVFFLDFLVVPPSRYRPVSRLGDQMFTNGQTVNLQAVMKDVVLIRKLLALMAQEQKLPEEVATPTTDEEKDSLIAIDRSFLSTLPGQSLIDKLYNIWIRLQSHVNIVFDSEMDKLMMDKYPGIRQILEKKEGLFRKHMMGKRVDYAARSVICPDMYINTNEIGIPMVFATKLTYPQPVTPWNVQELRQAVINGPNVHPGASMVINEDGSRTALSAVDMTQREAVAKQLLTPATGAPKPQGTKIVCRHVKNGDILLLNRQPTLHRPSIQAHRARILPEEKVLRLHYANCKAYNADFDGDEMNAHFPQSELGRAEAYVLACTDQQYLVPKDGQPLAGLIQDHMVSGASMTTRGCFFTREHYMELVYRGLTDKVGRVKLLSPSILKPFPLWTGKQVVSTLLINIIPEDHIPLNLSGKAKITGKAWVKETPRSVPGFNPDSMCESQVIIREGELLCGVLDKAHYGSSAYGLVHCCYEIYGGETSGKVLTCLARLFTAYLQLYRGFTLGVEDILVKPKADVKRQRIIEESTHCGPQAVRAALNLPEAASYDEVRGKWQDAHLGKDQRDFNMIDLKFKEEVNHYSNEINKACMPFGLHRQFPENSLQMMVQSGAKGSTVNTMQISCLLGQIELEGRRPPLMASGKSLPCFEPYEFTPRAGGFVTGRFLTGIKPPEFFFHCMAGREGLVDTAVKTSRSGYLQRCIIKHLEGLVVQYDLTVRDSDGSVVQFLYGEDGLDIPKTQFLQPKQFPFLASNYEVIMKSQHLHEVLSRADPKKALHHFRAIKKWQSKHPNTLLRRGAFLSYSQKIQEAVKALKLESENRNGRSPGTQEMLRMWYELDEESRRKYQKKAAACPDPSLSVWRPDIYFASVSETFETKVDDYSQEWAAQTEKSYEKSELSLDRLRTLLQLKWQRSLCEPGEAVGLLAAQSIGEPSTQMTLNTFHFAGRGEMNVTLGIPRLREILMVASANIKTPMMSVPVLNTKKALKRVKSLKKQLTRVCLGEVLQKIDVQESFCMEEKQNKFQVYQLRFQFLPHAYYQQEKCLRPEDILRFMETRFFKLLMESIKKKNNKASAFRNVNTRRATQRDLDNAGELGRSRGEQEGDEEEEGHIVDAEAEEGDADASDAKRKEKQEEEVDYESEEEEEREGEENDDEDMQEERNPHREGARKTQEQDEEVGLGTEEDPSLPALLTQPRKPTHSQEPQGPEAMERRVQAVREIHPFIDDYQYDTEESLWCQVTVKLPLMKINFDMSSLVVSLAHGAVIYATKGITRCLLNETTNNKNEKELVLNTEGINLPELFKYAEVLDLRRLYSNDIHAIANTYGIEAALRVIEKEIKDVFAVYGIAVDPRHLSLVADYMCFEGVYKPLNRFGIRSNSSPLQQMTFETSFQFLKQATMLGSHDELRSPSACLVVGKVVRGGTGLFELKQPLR
UniProt P31941: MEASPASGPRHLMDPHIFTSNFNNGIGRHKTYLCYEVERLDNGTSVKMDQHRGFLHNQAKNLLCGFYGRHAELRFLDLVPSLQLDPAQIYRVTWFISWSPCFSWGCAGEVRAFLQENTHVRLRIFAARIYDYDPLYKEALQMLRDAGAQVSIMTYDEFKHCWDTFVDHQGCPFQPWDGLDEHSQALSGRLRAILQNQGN
UniProt Q13263: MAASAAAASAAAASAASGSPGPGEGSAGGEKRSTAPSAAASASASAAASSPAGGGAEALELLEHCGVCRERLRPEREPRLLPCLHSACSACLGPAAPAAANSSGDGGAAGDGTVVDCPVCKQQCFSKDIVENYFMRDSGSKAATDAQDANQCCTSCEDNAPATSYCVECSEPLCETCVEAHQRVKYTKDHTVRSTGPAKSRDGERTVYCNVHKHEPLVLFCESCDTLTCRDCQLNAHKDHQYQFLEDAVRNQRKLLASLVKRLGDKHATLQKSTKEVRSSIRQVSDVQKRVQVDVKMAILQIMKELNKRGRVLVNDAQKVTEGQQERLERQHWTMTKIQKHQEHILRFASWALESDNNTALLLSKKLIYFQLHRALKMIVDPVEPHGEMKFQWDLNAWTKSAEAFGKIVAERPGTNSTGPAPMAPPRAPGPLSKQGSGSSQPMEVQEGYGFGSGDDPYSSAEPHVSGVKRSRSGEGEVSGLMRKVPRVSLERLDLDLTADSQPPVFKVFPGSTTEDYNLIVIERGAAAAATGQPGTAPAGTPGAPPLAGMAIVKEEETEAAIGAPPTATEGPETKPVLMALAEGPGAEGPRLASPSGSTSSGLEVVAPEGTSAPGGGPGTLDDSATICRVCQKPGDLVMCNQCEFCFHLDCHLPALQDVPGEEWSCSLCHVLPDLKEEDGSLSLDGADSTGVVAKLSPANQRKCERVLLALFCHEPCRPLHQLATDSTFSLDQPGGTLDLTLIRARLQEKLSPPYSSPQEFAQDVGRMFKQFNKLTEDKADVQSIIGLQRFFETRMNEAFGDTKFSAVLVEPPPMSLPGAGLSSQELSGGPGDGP

Tests used:
[1] = biological target: RPA194 (human (endogenous in HeLa)) (UniProt O95602); experiment: co-IP; α-RPA194 antibody on protein A or protein A/G agarose beads; total cell extract (sonication) of HeLa cells transfected with APOBEC3A-3XFLAG for 24 h; 2 h at 4°C; western blot; unconjugated beads as negative control
[2] = biological target: C-terminal 3X-FLAG tagged APOBEC3A wild-type (human) (UniProt P31941); experiment: co-IP; reciprocal: preconjugated α-FLAG M2 agarose; total cell extract (sonication) of HeLa cells transfected with APOBEC3A-3XFLAG for 24 h; 2 h at 4°C; western blot; unconjugated control agarose as negative control

With “C-terminal 3X-FLAG tagged APOBEC3A wild-type (from UniProt P31941-1 1-199) (enzyme)” the binding [1] was “binds”.

In the case of “KAP1 (TRIM28) (from UniProt Q13263 1-835)”, the binding [1] is reported as “binds” and the binding [2] is reported as “binds”.

RPA194 (from UniProt O95602 1-1720) was tested, and the binding [2] was “binds”.

B1: fibrillarin (protein, UniProt P22087 1-321)
chain: MKPGFSPRGGGFGGRGGFGDRGGRGGRGGFGGGRGRGGGFRGRGRGGGGGGGGGGGGGRGGGGFHSGGNRGRGRGGKRGNQSGKNVMVEPHRHEGVFICRGKEDALVTKNLVPGESVYGEKRVSISEGDDKIEYRAWNPFRSKLAAAILGGVDQIHIKPGAKVLYLGAASGTTVSHVSDIVGPDGLVYAVEFSHRSGRDLINLAKKRTNIIPVIEDARHPHKYRMLIAMVDVIFADVAQPDQTRIVALNAHTFLRNGGHFVISIKANCIDSTASAEAVFASEVKKMQQENMKPQEQLTLEPYERDHAVVVGVYRPPPKVKN
With B1 the binding [1] was “binds” and the binding [2] was “binds”.
